According to the supplement of paper PMC7661543:
The effect of the compound repeats well; differences between the knockouts mostly do not.

Tested on: BT-20
Assay: relative cell number vs DMSO control (72 h) (% of DMSO); higher = less growth inhibition (more cells)
Experimental: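 QMAP-Seq: a pool of 5 breast cancer cell lines (ZR-75-1, SKBR3, HCC-38, MDA-MB-231, BT-20), each carrying 12 doxycycline-inducible Cas9 sgRNA perturbations (11 knockouts plus non-targeting sgNT), was treated with compounds for 72 h at four 10-fold doses (10 nM-10 uM or 1 nM-1 uM range). Barcodes were amplified and sequenced, and cell number was interpolated from 293T spike-in standard curves. The result is expressed as % of the median of DMSO wells. Two biological replicates.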

CCC(C)(C)C(=O)O[C@H]1C[C@@H](C)C=C2C=C[C@H](C)[C@H](CC[C@@H]3C[C@@H](O)CC(=O)O3)[C@H]21 [Simvastatin]
Details	relative cell number
sgRNA knockout: sgATF3, 10 nM	96.7
sgRNA knockout: sgATF3, 100 nM	98.4
sgRNA knockout: sgATF3, 1000 nM	96.5
sgRNA knockout: sgATF3, 10000 nM	90.3
sgRNA knockout: sgATF4, 10 nM	107
sgRNA knockout: sgATF4, 100 nM	89
sgRNA knockout: sgATF4, 1000 nM	94.1
sgRNA knockout: sgATF4, 10000 nM	103
sgRNA knockout: sgATF6, 10 nM	98.8
sgRNA knockout: sgATF6, 100 nM	100
sgRNA knockout: sgATF6, 1000 nM	104
sgRNA knockout: sgATF6, 10000 nM	96.1
sgRNA knockout: sgATG7, 10 nM	93.2
sgRNA knockout: sgATG7, 100 nM	82.9
sgRNA knockout: sgATG7, 1000 nM	109
sgRNA knockout: sgATG7, 10000 nM	98.4
sgRNA knockout: sgERN1, 10 nM	89.556
sgRNA knockout: sgERN1, 100 nM	80.3
sgRNA knockout: sgERN1, 1000 nM	112
sgRNA knockout: sgERN1, 10000 nM	84.3
sgRNA knockout: sgHSF1, 10 nM	96
sgRNA knockout: sgHSF1, 100 nM	85.83
sgRNA knockout: sgHSF1, 1000 nM	95.8
sgRNA knockout: sgHSF1, 10000 nM	102
sgRNA knockout: sgHSF2, 10 nM	85.7
sgRNA knockout: sgHSF2, 100 nM	87.7
sgRNA knockout: sgHSF2, 1000 nM	98.5
sgRNA knockout: sgHSF2, 10000 nM	102
sgRNA knockout: sgKEAP1, 10 nM	95.3
sgRNA knockout: sgKEAP1, 100 nM	94.9
sgRNA knockout: sgKEAP1, 1000 nM	92
sgRNA knockout: sgKEAP1, 10000 nM	104
sgRNA knockout: sgNFE2L2, 10 nM	85.7
sgRNA knockout: sgNFE2L2, 100 nM	90.29
sgRNA knockout: sgNFE2L2, 1000 nM	96.5
sgRNA knockout: sgNFE2L2, 10000 nM	101
sgRNA knockout: sgSLC35F2, 10 nM	96
sgRNA knockout: sgSLC35F2, 100 nM	83.4
sgRNA knockout: sgSLC35F2, 1000 nM	94.7
sgRNA knockout: sgSLC35F2, 10000 nM	89
sgRNA knockout: sgXBP1, 10 nM	103
sgRNA knockout: sgXBP1, 100 nM	86.9
sgRNA knockout: sgXBP1, 1000 nM	89.6
sgRNA knockout: sgXBP1, 10000 nM	89.1

COC(=O)/C=C/C(=O)OC [DimethylFumarate]
Details	relative cell number
sgRNA knockout: sgATF3, 10 nM	91.8
sgRNA knockout: sgATF3, 100 nM	84.2
sgRNA knockout: sgATF3, 1000 nM	90.3
sgRNA knockout: sgATF3, 10000 nM	92.8
sgRNA knockout: sgATF4, 10 nM	111
sgRNA knockout: sgATF4, 100 nM	93.8
sgRNA knockout: sgATF4, 1000 nM	102
sgRNA knockout: sgATF4, 10000 nM	95.56
sgRNA knockout: sgATF6, 10 nM	108
sgRNA knockout: sgATF6, 100 nM	88.3
sgRNA knockout: sgATF6, 1000 nM	105
sgRNA knockout: sgATF6, 10000 nM	92.4
sgRNA knockout: sgATG7, 10 nM	96.1
sgRNA knockout: sgATG7, 100 nM	95.9
sgRNA knockout: sgATG7, 1000 nM	99.1
sgRNA knockout: sgATG7, 10000 nM	100
sgRNA knockout: sgERN1, 10 nM	101
sgRNA knockout: sgERN1, 100 nM	88.8
sgRNA knockout: sgERN1, 1000 nM	100
sgRNA knockout: sgERN1, 10000 nM	107
sgRNA knockout: sgHSF1, 10 nM	97.2
sgRNA knockout: sgHSF1, 100 nM	98.2
sgRNA knockout: sgHSF1, 1000 nM	92.1
sgRNA knockout: sgHSF1, 10000 nM	93.5
sgRNA knockout: sgHSF2, 10 nM	99.1
sgRNA knockout: sgHSF2, 100 nM	92.3
sgRNA knockout: sgHSF2, 1000 nM	95.8
sgRNA knockout: sgHSF2, 10000 nM	102
sgRNA knockout: sgKEAP1, 10 nM	102
sgRNA knockout: sgKEAP1, 100 nM	92.4
sgRNA knockout: sgKEAP1, 1000 nM	105
sgRNA knockout: sgKEAP1, 10000 nM	92
sgRNA knockout: sgNFE2L2, 10 nM	112
sgRNA knockout: sgNFE2L2, 100 nM	92.6
sgRNA knockout: sgNFE2L2, 1000 nM	109
sgRNA knockout: sgNFE2L2, 10000 nM	103
sgRNA knockout: sgSLC35F2, 10 nM	99.8
sgRNA knockout: sgSLC35F2, 100 nM	107
sgRNA knockout: sgSLC35F2, 1000 nM	101
sgRNA knockout: sgSLC35F2, 10000 nM	90.1
sgRNA knockout: sgXBP1, 10 nM	103
sgRNA knockout: sgXBP1, 100 nM	86.9
sgRNA knockout: sgXBP1, 1000 nM	100
sgRNA knockout: sgXBP1, 10000 nM	102

C=C(C)[C@@H]1CC[C@]2(C(=O)O)CC[C@]3(C)[C@H](CC[C@@H]4[C@@]5(C)CC[C@H](O)C(C)(C)[C@@H]5CC[C@]43C)[C@@H]12 [BetulinicAcid]
Details	relative cell number
sgRNA knockout: sgATF3, 10 nM	101
sgRNA knockout: sgATF3, 100 nM	87.2
sgRNA knockout: sgATF3, 1000 nM	86
sgRNA knockout: sgATF3, 10000 nM	97.97
sgRNA knockout: sgATF4, 10 nM	91.4
sgRNA knockout: sgATF4, 100 nM	83.2
sgRNA knockout: sgATF4, 1000 nM	87.3
sgRNA knockout: sgATF4, 10000 nM	105
sgRNA knockout: sgATF6, 10 nM	99.8
sgRNA knockout: sgATF6, 100 nM	91.8
sgRNA knockout: sgATF6, 1000 nM	90.6
sgRNA knockout: sgATF6, 10000 nM	94
sgRNA knockout: sgATG7, 10 nM	99.2
sgRNA knockout: sgATG7, 100 nM	83.9
sgRNA knockout: sgATG7, 1000 nM	93.4
sgRNA knockout: sgATG7, 10000 nM	107
sgRNA knockout: sgERN1, 10 nM	83.2
sgRNA knockout: sgERN1, 100 nM	92.5
sgRNA knockout: sgERN1, 1000 nM	95.5
sgRNA knockout: sgERN1, 10000 nM	96.2
sgRNA knockout: sgHSF1, 10 nM	99.8
sgRNA knockout: sgHSF1, 100 nM	79.4
sgRNA knockout: sgHSF1, 1000 nM	84.4
sgRNA knockout: sgHSF1, 10000 nM	95.7
sgRNA knockout: sgHSF2, 10 nM	86
sgRNA knockout: sgHSF2, 100 nM	89.67
sgRNA knockout: sgHSF2, 1000 nM	83.1
sgRNA knockout: sgHSF2, 10000 nM	94.6
sgRNA knockout: sgKEAP1, 10 nM	94
sgRNA knockout: sgKEAP1, 100 nM	86.9
sgRNA knockout: sgKEAP1, 1000 nM	98.1
sgRNA knockout: sgKEAP1, 10000 nM	97.7
sgRNA knockout: sgNFE2L2, 10 nM	98.2
sgRNA knockout: sgNFE2L2, 100 nM	106
sgRNA knockout: sgNFE2L2, 1000 nM	86.4
sgRNA knockout: sgNFE2L2, 10000 nM	95.46
sgRNA knockout: sgSLC35F2, 10 nM	94.1
sgRNA knockout: sgSLC35F2, 100 nM	90.8
sgRNA knockout: sgSLC35F2, 1000 nM	97.7
sgRNA knockout: sgSLC35F2, 10000 nM	93.4
sgRNA knockout: sgXBP1, 10 nM	94.2
sgRNA knockout: sgXBP1, 100 nM	92.2
sgRNA knockout: sgXBP1, 1000 nM	86.9
sgRNA knockout: sgXBP1, 10000 nM	100.5
